According to US5849890:
For some assays here: The exact form of at least one protein or probe is not confirmed.

Chains of the proteins cited; added tags and fusions are not shown. A line that says so, or that is headed by a name, gives the form on record, which may keep a tag or linker. Residues count along the entry.
UniProt P01222, 21-132: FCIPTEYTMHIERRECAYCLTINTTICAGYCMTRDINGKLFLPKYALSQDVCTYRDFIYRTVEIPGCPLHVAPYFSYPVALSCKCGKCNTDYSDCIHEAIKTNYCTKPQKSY
UniProt P01215, 25-116: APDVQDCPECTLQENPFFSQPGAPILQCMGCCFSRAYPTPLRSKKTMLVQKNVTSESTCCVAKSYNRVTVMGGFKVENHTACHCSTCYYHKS
human chorionic gonadotropin (hCG) heterodimer (Homo sapiens), one chain, as listed by the source, chain 1 of 2: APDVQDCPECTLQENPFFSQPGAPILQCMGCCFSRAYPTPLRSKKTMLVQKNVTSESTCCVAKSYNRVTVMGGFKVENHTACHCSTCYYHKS
human luteinizing hormone (hLH) (Homo sapiens), one chain, as listed by the source, chain 2 of 2: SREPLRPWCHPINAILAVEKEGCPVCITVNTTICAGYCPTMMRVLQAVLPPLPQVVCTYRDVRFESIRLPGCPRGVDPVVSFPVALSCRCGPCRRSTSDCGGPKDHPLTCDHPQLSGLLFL

Legend:
Test in all cases: filter binding
[1] = system: human chorionic gonadotropin (hCG) heterodimer (Homo sapiens); settings: 2'-F all pyrimidines, range for the group, individual value not shown, purified native protein, protein details: Calbiochem or Vitro Diagnostics (14,000 IU/mg), label: 32P
[2] = system: human luteinizing hormone (hLH) (Homo sapiens); settings: purified native protein, label: 32P
[3] = target: hTSH beta-subunit (Homo sapiens) (UniProt P01222); settings: 2'-NH2 all pyrimidines; purified native protein; label: 32P
[4] = target: glycoprotein hormone common alpha-subunit (UniProt P01215); settings: 2'-NH2 all pyrimidines; purified native protein; protein details: UCB-bioproducts; label: 32P

Sequence: GGGAGACAAGAAUAAACGCUCAAUUUGGAAGAUCCCAGAGUCUCGUUGGUCGUUAAACGAUCCUUCGACAGGAGGCUCACAACAGGC [Class 1 ligand 33]
- binding result ([1]; 0.03% bound at 100 nM, mutated conserved region): binds

Sequence: GGGAGACAAGAAUAAACGCUCAAUUUGGAAGAUCCCAGAGUCUCGUUGGUCGUUGAACGAUCCUUCGACAGGAGGCUCACAACAGGC [Class 1 ligand 6]
- binding result ([1]; 4.64% bound at 100 nM): binds

Sequence: GGGAGACAAGAAUAAACGCUCAACAGUGAUUGAACGAUCCUUUCAGCUGGUGGGUAUGGGGUUCGACAGGAGGCUCACAACAGGC [Class 1 ligand 25]
- binding result ([1]; 2.20% bound at 100 nM): binds

Sequence: GGGAGACAAGAAUAAACGCUCAACAGCGAUUGAACGAUCCUUUCAGCUGAUGGGUAUGGGAUUCGACAGGAGGCUCACAACAGGC [Class 1 ligand 36]
- binding result ([1]; 0.60% bound at 100 nM): binds

Sequence: GGGAGACAAGAAUAAACGCUCAAAAGUCCCUCGCAGAGCUUGCUGGUUCGAUUGAACGAUCCUUUCGACAGGAGGCUCACAACAGGC [Class 1 ligand 19]
- binding result ([1]; 0.84% bound at 100 nM): binds

Sequence: GGGAGUCUCGUUGGUCGUUGAACGAUCCUUCGACAGGAGGCUCA [hCG ligand 9TR1]
- Kd ([2]; 2'-F all pyrimidines, SBB buffer, variant of hCG ligand 9): > 80 µM
- Kd ([2]; 2'-F all pyrimidines, in urine, variant of hCG ligand 9): > 80 µM

Sequence: GGGAGGACGAUGCGGAUGUUGGCAGCAGGGUCCGACGGCGUAACCUUGCCAGCUGCAGACGACUCGCCCGA [T-15]
- Kd [3]: > 3.2 µM
- Kd [4]: > 3.6 µM
- Kd ([2]; 2'-NH2 all pyrimidines): > 1 µM

Sequence: GGGAGACAAGAAUAAACGCUCAACAGCGAUUGAACGACCUUCAGCUGAUGGGUAUGGGAUUCGACAGGAGGCUCACAACAGGC [Class 1 ligand 41]
- binding result ([1]; 0.61% bound at 100 nM, mutated conserved region): binds
